The text below walks through data of the supplement of paper PMC8104966.

The other results are listed elsewhere or left out. This data set is noisy: repeats of one test often differ as much as different tests do.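 U2OS cells carrying ACE2 were mixed with U2OS cells carrying full-length spike, and fusion was scored by imaging as the share of nuclei showing both cell types' fluorescent markers. A compound counts as an inhibitory hit when it is non-toxic and its fusion z-score falls below -3, meaning more than three standard deviations below the plate's DMSO wells.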

The subject of this assay is U2OS ACE2 x SARS-CoV-2 spike co-culture. In words: cell-cell fusion (fraction fused) z-score vs plate DMSO control; higher = more fusion. The following applies: 30 µM; 5 h; toxicity class: non-toxic, passed QC.
Turning to `CC1=C(CC(=O)O)c2cc(F)ccc2/C1=C\c1ccc(S(C)=O)cc1` (centres undefined) [Sulindac], the “cell-cell fusion (z-score)” value is inactive: 2.72. As for `CC(C)Nc1cccnc1N1CCN(C(=O)c2cc3cc(NS(C)(=O)=O)ccc3[nH]2)CC1.CS(=O)(=O)O` [Delavirdine], the “cell-cell fusion (z-score)” value is inactive: 3.28. `CCN(CC)CC#CCOC(=O)C(O)(c1ccccc1)C1CCCCC1` (centres undefined) [Oxybutynin]: the “cell-cell fusion (z-score)” value was inactive: 2.37. `Cc1nc(NC(=O)N2CCC[C@H]2C(N)=O)sc1-c1ccnc(C(C)(C)C(F)(F)F)c1`: the “cell-cell fusion (z-score)” value was active: -4.91.

As to `C/C(=C\C(=O)Nc1ccccc1C(=O)O)c1ccc2ccccc2c1`, the “cell-cell fusion (z-score)” value was inactive: 1.75. As to `O=C1NCCc2[nH]c(-c3ccncc3)cc21`, the “cell-cell fusion (z-score)” value was inactive: 2.26. With `N#C/C(=C(/N)Sc1ccc(N)cc1)c1ccccc1C(F)(F)F`, the “cell-cell fusion (z-score)” value is inactive: 0.173. Consider `CC[C@H]1OC(=O)[C@H](C)[C@@H](O[C@H]2C[C@@](C)(OC)[C@@H](O)[C@H](C)O2)[C@H](C)[C@@H](O[C@@H]2O[C@H](C)C[C@H](N(C)C)[C@H]2O)[C@](C)(O)C[C@@H](C)CN(C)[C@H](C)[C@@H](O)[C@]1(C)O.O.O` [Azithromycin dihydrate], for which the “cell-cell fusion (z-score)” value was inactive: 3.35. For `NC(=O)c1cccc(-c2cc(Nc3ccc(OC(F)(F)F)cc3)ncn2)c1`, the “cell-cell fusion (z-score)” value is active: -9.38. Regarding `CC(C)Cn1c(=O)n(C)c(=O)c2[nH]cnc21` [3-Isobutyl-1-methylxanthine], the “cell-cell fusion (z-score)” value is inactive: 2.18. Turning to `CC(C)Cn1c(=O)n(C)c(=O)c2[nH]cnc21`, the “cell-cell fusion (z-score)” value was inactive: 0.745. On to `N#CC[C@@H](C1CCCC1)n1cc(-c2ncnc3[nH]ccc23)cn1`, for which the “cell-cell fusion (z-score)” value was inactive: -1.

For the compound `CNC(=O)[C@H]1O[C@@H](n2cnc3c(NCc4cccc(I)c4)ncnc32)C(O)[C@H]1O` (some centres undefined), the “cell-cell fusion (z-score)” value is inactive: 0.85. Consider `CN1CCN(C(=O)O[C@H]2c3nccnc3C(=O)N2c2ccc(Cl)cn2)CC1`, for which the “cell-cell fusion (z-score)” value is inactive: 3.74. In the case of `CC(C)Nc1ncccn1`, the “cell-cell fusion (z-score)” value was inactive: 0.78.

In the case of `C#C[C@]1(OC(C)=O)CC[C@H]2[C@@H]3CCC4=C/C(=N/O)CC[C@@H]4[C@H]3CC[C@@]21CC` [Norgestimate], the “cell-cell fusion (z-score)” value was active: -5.46. Take `O=c1cc(-c2ccccc2)oc2cccc(O)c12`: the “cell-cell fusion (z-score)” value was inactive: 1.92. As to `CC1CC(OC(=O)C(O)c2ccccc2)CC(C)(C)C1` (centres undefined), the “cell-cell fusion (z-score)” value is inactive: 1.09. The same measure for `C[C@@H](N)[C@@H](O)c1ccccc1.Cl`: inactive: 0.809. Take `COc1ccc(NC(=O)c2ccc(C(=N)N(C)C)cc2)c(C(=O)Nc2ccc(Cl)cn2)c1` [Betrixaban]: the “cell-cell fusion (z-score)” value is inactive: 0.144. The same measure for `CC(=O)OCC(=O)[C@@]1(O)[C@H](C)CC2C3CCC4=CC(=O)C=C[C@]4(C)[C@@]3(F)[C@@H](O)C[C@@]21C` (some centres undefined): inactive: 1.3; for `Cc1cn(-c2cc(NC(=O)c3ccc(C)c(Nc4nccc(-c5cccnc5)n4)c3)cc(C(F)(F)F)c2)cn1` [Nilotinib (AMN-107)]: inactive: 2.72. The same measure for `CCN(CC)C(=O)c1ccc(O)c(OC)c1`: inactive: 3.02; for `CCN(CC)C(=O)c1ccc(O)c(OC)c1` [Vanillic acid diethylamide]: inactive: 1.78; for `CCOC(=O)[C@H](CCc1ccccc1)N[C@@H](C)C(=O)N1Cc2ccccc2C[C@H]1C(=O)O.Cl`: inactive: -0.111. Take `COc1ccc2c(c1)c(CC(=O)O)c(C)n2C(=O)c1ccc(Cl)cc1` [Indometacin]: the “cell-cell fusion (z-score)” value is inactive: 3.4. In the case of `CN[C@@H]1[C@@H](O[C@H]2O[C@H](CO)[C@@H](N)[C@H](O)[C@H]2O)O[C@H]2C[C@@H](N)[C@H](O[C@H]3[C@H](O)[C@@H](O)[C@H](N)C[C@@H]3N)O[C@@H]2[C@@H]1O` it was inactive: 2.44.

In the case of `OC[C@@H](O)[C@@H](O[C@@H]1O[C@H](CO)[C@@H](O)[C@H](O)[C@H]1O)[C@H](O)[C@@H](O)CO`, the “cell-cell fusion (z-score)” value was inactive: 1.64. In the case of `CN1C(=O)CC(c2ccccc2)C1=O` (centres undefined), the “cell-cell fusion (z-score)” value was inactive: 2.72. The same measure for `C=CCc1ccc([N+](C)(C)CCC(=O)CC[N+](C)(C)c2ccc(CC=C)cc2)cc1.[Br-].[Br-]`: inactive: 2.03. Regarding `CCCCCCCCC(=O)NCc1ccc(O)c(OC)c1`, the “cell-cell fusion (z-score)” value was inactive: -0.483. `CNCCc1ccc(O)c(O)c1.Cl` [N-Methyldopamine hydrochloride]: the “cell-cell fusion (z-score)” value was inactive: -2.07. The same measure for `COC(=O)C(c1ccccc1)C1CCCCN1.Cl` (centres undefined): inactive: 4.3; for `CNCC[C@H](Oc1ccc(C(F)(F)F)cc1)c1ccccc1.Cl` [S-(+)-Fluoxetine hydrochloride]: inactive: 0.0444. With `Cl.Clc1ccc(N2CCN(Cc3c[nH]c4ncccc34)CC2)cc1` [L-745,870 hydrochloride], the “cell-cell fusion (z-score)” value was inactive: 2.78. With `O=C([O-])c1ccccc1-c1c2cc(Br)c(=O)cc-2oc2[c]([Hg][OH])c([O-])c(Br)cc12.[Na+].[Na+]`, the “cell-cell fusion (z-score)” value was inactive: 2.67. In the case of `Nc1ccc(C(=O)[O-])c(O)c1.O.O.[Na+]` [Sodium 4-aminosalicylate dihydrate] it was inactive: 2.69; in that of `O=C(O)CC[C@H]1CC[C@@](c2cc(F)ccc2F)(S(=O)(=O)c2ccc(Cl)cc2)CC1`, inactive: 2.65; in that of `CC#C[C@]1(O)CC[C@H]2[C@@H]3CCC4=CC(=O)CCC4=C3[C@@H](c3ccc(N(C)C)cc3)C[C@@]21C` [Mifepristone], inactive: 2.73. For the compound `NC(=O)c1ccccc1` [Benzamide], the “cell-cell fusion (z-score)” value was inactive: 1.24.

Consider `CCN[C@H]1CN(CCCOC)S(=O)(=O)c2sc(S(N)(=O)=O)cc21` [Brinzolamide], for which the “cell-cell fusion (z-score)” value is inactive: 0.972. In the case of `CCN(CC)C(=O)/C(C#N)=C/c1cc(O)c(O)c([N+](=O)[O-])c1` it was inactive: 1.01; in that of `Cc1cc2c(C(C)C)c(O)c(O)c(C=O)c2c(O)c1-c1c(C)cc2c(C(C)C)c(O)c(O)c(C=O)c2c1O` [Gossypol], active: -6.77. In the case of `CC(C)(C)c1onc(O)c1CC([NH3+])C(=O)[O-]` (centres undefined) it was inactive: 1.04.
